These results are taken from patent publication US9834772.

For part of these data: A negative result means that nothing was seen under these conditions. For part of these data: Weaker means in comparison with the reference protein, sequence or condition of that experiment.

The target of data set [1] is Glycated human serum albumin (GHSA) (Homo sapiens) (UniProt P02768). Description: ELONA. The settings on record: purified native protein; label: 5' biotin; single-stranded DNA.
Data set [2] has the same target. Description: EMSA. The following applies: lower affinity than G8; indirect ELISA + at 200, 20, 2 nM, - at 0.2 nM (Table 9); purified native protein; label: 5' biotin; single-stranded DNA. A general note: A gel shift assay detects complexes by their altered migration in electrophoresis.
The target in data set [3] is Human serum albumin (HSA) (Homo sapiens) (UniProt P02768). The data set can be described thus: ELONA. The settings on record: purified native protein; label: 5' biotin; single-stranded DNA.

With “ATACCAGCTTATTCAATTCGCGCACATATACAGGGCTTTACCAGCGGGGAAGGTTAGCGACGCGAGGGGGAGATAGTAAGTGCAATCT [H14]”, the binding result in data set [1] is given as “no binding”.

In the case of “TAACTCACTCCATACTCACTTGCTGATTCGCCAACAACACACCCTTAAACAGTCCC [clone 9]”, in data set [2], the binding result was “binds more weakly”.

Consider “TCCCCCCATCACACCCAAGCCGCAGCCACCGACATAGCAAGCATTGTCTTTCC [G12]”, for which the binding result in data set [3] is recorded as “no binding”.
